PubChem BioAssay AID1347423 (Functional Genomics Laboratory (NCATS/FGL), 2020)
Hit rate of the full screen: of about 52,000 sequences, about 210 (0.4%) were called active.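 How the source made its calls: active means gene whose silencing raises cell survival under the drug, median off-target-corrected z-score across its silencing RNAs 2 or more; inactive means the rest.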 The list shows a part of the results.

assay: Resistance to Poly (ADP-Ribose) Polymerase inhibitor: Gene Identification via Genome-wide siRNA Screen; settings: mouse BRCA2 R2336H ES cells, olaparib, CellTiter-Glo viability; stronger effect = higher value
Outline: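 Genome-wide siRNA screen (3 siRNAs/gene, 20 nM) in mouse ES cells carrying hypomorphic BRCA2 R2336H; olaparib 500 nM added 48 h post-transfection, CellTiter-Glo viability 72 h later. Normalized to plate-median negative control; MAD z-scores, gene median, seed-adjusted.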

| Sequence | z-score |
| --- | --- |
| CCGAAUUUUUCAAUGGCAATT against Pzp | inactive: 0.691 |
| GCUGGACAAACGAUGGUCATT against Wdr10 | inactive: 0.725 |
| AGACAUCGUGCGAUAUUUGTT against Cdkn2a | inactive: -0.826 |
| GGUUUACCUCUAUAAGAAUTT against Tas2r106 | inactive: -0.335 |
| GGGAAAUGGCUCAUACUGGTT against 2210010C04Rik | inactive: -0.608 |
| GCUCAGACCAUAGUUUCUATT against A930002I21Rik | inactive: 1.53 |
| GGAUGUUAUAAGAUUGCGUTT against Rnf170 | inactive: -0.646 |
| GGCAUUUAGACUUUUUUGATT against Daam1 | inactive: 1.05 |
| GGUGUUUAAAUUCAUCUACTT against AU024582 | inactive: 0.0454 |
| GGAUCUUGAGUUGGAGUCCTT against 4930579G22Rik | inactive: 1 |
| GGUUUUGAGAAGAUAACUCTT against Zfp236 | inactive: 0.912 |
| CCUUGUUAUAGACCAACCUTT against 2310034C09Rik | inactive: -0.376 |
| CGCAGGAUACAGCUAUAUUTT against Elovl4 | inactive: -0.91 |
| GGAAUCAGUGGUACCAAAUTT against Sorcs1 | inactive: -2.92 |
| CCAGUCCAUUGAAUAGUUCTT against Papola | inactive: 0.832 |
| GCUAUGGACCUCAGCAUAGTT against Inpp5e | inactive: -1.86 |
| GGUGUGUUCAGGAGUUGAUTT against Col12a1 | inactive: 1.15 |
| GCGGUGAUUUCGUCUAUUUTT against D14Ertd436e | inactive: -0.623 |
| CCUUUAUUGGUGUUGGCCGTT against Apbb3 | inactive: 0.193 |
| CUCGCUGCCCGGCGGCCUCTT against Sox3 | inactive: 0.119 |
| GGACGGUCUUGAAAAUGGATT against Creld1 | inactive: 0.19 |
| GGAUUUCAAAGUGCUUUGCTT against Kifap3 | inactive: 0.243 |

| Sequence | z-score |
| --- | --- |
| CGUUGUCAAAAGGACCCAUTT against D7Ertd458e | inactive: -0.695 |
| GGUUAUCAGAAGUGGAGAGTT against Ingaprp | inactive: -1.81 |
| GGGCAAGUAUGGGCAGUUCTT against Ppp1ca | inactive: -0.683 |
| GGUCUCUGGUAAGAAGAGCTT against Zfp276 | inactive: 1.71 |
| GCAUUAUAUGGCUUCAUAUTT against 5730414C17Rik | inactive: -2.78 |
| GGAGAAGUGGUAGAAACUGTT against Brd8 | inactive: -1.65 |
| GGCAGCUAAGUACGUUCAUTT against Gba | inactive: 0.45 |
| GCGACUCCCACAUACUCAGTT against Muc19 | inactive: -2.66 |
| GGCCAAAAAAGGGUAUAAGTT against Rad18 | inactive: 0.265 |
| GGAAAAGGCAAUCGUUUCUTT against Gtpbp5 | inactive: 0.445 |
| CCUUAUAGUGCUGAGGAAATT against Orm1 | inactive: -1.34 |
| GCUAUGCUACUGGUUGUGGTT against Olfr1351 | inactive: -0.226 |
| GGGAAGCAACAGUAAACAUTT against 2310043N13Rik | inactive: 1.78 |
| GGUUGUGAUAUUAGGUCCGTT against 1190002A17Rik | inactive: 0.788 |
| CGAGGUACAUCCCAAGCAATT against Ptk9l | inactive: 0.544 |
| GGUACAAACUCUCCCUAGATT against Ube2c | inactive: -1.45 |
| GGUACUCUGAAAAGAUCGCTT against LOC240549 | inactive: 1.6 |
| CCAAGGUACUACUGGGAGATT against Sval3 | inactive: -1.88 |
| GCUGUGAAAACGCAGUUACTT against 2900054P12Rik | inactive: 0.221 |
| CGAAAUGGACUUCAACUUCTT against Foxo6 | inactive: -0.445 |
| GGAAAAUGCUGUCCAGUGGTT against Rdh11 | inactive: 0.345 |
| GGUAUUGGUUUCAUCCACCTT against Impdh2 | inactive: -0.768 |

| Sequence | z-score |
| --- | --- |
| UCUGUUUCUAACAAGUGCATT against Taar7e | inactive: -1.09 |
| GCAAACUCGGACUUUCAAATT against Map2k1ip1 | inactive: -1.66 |
| GGCUAAGUGUGGAAUAGUUTT against 4933427D06Rik | inactive: -0.641 |
| GGAUCUUGGCUAAAGAGGGTT against Slc25a25 | inactive: -0.00305 |
| GGUUCAGCACAAAGAAACATT against Rapgef5 | inactive: -0.945 |
| GCCUCAAUUCCUCUACGCUTT against Sytl1 | inactive: 1.48 |
| GGGACUCAACGCACUUUCUTT against Ambn | inactive: -2.19 |
| GGAUGGAUCAUCUUUUCUATT against Nme2 | inactive: -0.561 |
| GGAAGCAGUAUCUCGGAAATT against Slc4a1ap | inactive: 0.386 |
| GGUAUCAGGUACCAACGACTT against Cpne6 | inactive: 1.14 |
| GGACGGAAUCAGGAACAUUTT against Echdc3 | inactive: 2.31 |
| GCCGCACCGAAAGUGAAAUTT against Copz2 | inactive: -0.192 |
| GGACGUGCUUCCGAAUAGUTT against Scn1a | inactive: 1.2 |
| GCUCCUGUACAGUUCAAACTT against Mrpl17 | inactive: 0.265 |
| GGAUAUCUUCUCCUAUUUUTT against 1200014J11Rik | inactive: -0.0433 |
| CCCUCAGGACACGUUUUAGTT against 2610014F08Rik | inactive: 0.929 |
| UAUUGUGGACCCAACAGGATT against Olfr1337 | inactive: -0.17 |
| GGUAUUGAUCAAUAUGACATT against Ddx46 | inactive: 0.141 |
| GCUGUGGUACAACCACAUUTT against Lrrc8 | inactive: 0.69 |
| CGAGGAGUGGUAUUUUUACTT against Slc34a1 | inactive: 0.208 |
| GGUGGGAAGUAUUUAUUUATT against Grasp | inactive: -0.107 |
| GGCCUUGAAGUCUGAAUUCTT against Fgd2 | inactive: 0.102 |

A different layout for part of the listing above:
Sequence	z-score
GGCAUUUAGACUUUUUUGATT against Daam1	inactive: 1.05
CCAGUCCAUUGAAUAGUUCTT against Papola	inactive: 0.832
GCGGUGAUUUCGUCUAUUUTT against D14Ertd436e	inactive: -0.623
CCUUUAUUGGUGUUGGCCGTT against Apbb3	inactive: 0.193
CUCGCUGCCCGGCGGCCUCTT against Sox3	inactive: 0.119
CGUUGUCAAAAGGACCCAUTT against D7Ertd458e	inactive: -0.695
GGAGAAGUGGUAGAAACUGTT against Brd8	inactive: -1.65
GGCCAAAAAAGGGUAUAAGTT against Rad18	inactive: 0.265
GGUACAAACUCUCCCUAGATT against Ube2c	inactive: -1.45
GCUGUGAAAACGCAGUUACTT against 2900054P12Rik	inactive: 0.221
GGCUAAGUGUGGAAUAGUUTT against 4933427D06Rik	inactive: -0.641
GCCGCACCGAAAGUGAAAUTT against Copz2	inactive: -0.192
GCUCCUGUACAGUUCAAACTT against Mrpl17	inactive: 0.265
GGUAUUGAUCAAUAUGACATT against Ddx46	inactive: 0.141
CGAGGAGUGGUAUUUUUACTT against Slc34a1	inactive: 0.208
GGUGGGAAGUAUUUAUUUATT against Grasp	inactive: -0.107
